Where a chain is given by its changes, count along the chain named. Results are given in words; binding and its absence hold for the method and conditions named. Binding seen in cells or lysates may run through a third protein. Some entries that bind do so weakly or less than the wild type. For some assays here: Sequences can lack the tags named with a protein.
What was measured:
Assay in all cases: co-IP
[1] = target: T1, Flag-TBK1 (UniProt Q9UHD2)
T1 sequence: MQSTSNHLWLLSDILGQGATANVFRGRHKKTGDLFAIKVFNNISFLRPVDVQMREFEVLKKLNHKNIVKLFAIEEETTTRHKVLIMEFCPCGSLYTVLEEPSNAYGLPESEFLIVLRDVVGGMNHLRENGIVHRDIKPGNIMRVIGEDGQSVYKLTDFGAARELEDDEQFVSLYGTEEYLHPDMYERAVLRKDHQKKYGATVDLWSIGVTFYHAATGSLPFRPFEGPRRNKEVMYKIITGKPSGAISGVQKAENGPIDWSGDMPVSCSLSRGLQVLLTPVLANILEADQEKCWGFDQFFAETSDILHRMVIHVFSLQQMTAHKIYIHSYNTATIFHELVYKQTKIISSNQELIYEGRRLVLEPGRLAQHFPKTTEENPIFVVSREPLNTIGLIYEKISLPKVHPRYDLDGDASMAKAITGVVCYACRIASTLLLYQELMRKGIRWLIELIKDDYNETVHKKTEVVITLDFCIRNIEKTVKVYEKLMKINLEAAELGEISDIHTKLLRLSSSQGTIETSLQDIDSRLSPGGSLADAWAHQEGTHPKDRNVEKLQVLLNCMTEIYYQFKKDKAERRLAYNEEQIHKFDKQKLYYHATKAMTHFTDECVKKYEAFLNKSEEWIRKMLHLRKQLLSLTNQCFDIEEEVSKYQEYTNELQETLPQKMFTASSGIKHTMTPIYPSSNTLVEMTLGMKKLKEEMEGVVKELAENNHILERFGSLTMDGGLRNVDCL

Protein sequences, listed by entry. Tags and fused reporters are not part of them.
UniProt Q7Z434: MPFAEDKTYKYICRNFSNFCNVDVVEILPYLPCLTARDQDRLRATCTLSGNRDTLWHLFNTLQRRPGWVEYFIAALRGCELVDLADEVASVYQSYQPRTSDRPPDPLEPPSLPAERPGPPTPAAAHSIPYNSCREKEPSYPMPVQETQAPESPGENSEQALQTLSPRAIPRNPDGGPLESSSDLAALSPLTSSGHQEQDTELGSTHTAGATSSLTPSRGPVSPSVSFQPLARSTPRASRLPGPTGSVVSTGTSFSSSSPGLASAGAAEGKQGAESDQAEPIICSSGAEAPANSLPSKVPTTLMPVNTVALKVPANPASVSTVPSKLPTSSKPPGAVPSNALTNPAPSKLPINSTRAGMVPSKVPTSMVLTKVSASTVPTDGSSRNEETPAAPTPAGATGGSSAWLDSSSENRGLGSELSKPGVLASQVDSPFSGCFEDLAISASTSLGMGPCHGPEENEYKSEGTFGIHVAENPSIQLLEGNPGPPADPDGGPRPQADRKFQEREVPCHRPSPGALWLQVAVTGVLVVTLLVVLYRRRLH
UniProt Q14653: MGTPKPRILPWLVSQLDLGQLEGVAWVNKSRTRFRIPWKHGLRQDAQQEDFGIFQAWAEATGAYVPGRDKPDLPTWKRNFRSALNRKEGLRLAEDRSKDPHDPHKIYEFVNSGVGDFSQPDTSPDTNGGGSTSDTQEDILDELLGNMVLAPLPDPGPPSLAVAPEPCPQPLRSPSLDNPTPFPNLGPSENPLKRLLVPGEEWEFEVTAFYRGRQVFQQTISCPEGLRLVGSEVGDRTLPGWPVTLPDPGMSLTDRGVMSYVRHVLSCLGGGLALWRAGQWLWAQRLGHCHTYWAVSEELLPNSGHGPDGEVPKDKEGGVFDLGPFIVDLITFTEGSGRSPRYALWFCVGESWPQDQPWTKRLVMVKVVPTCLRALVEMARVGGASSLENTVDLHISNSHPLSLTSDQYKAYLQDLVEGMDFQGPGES

[2] = target: T2, DYRK4-Flag (UniProt Q9NR20)
T2 sequence: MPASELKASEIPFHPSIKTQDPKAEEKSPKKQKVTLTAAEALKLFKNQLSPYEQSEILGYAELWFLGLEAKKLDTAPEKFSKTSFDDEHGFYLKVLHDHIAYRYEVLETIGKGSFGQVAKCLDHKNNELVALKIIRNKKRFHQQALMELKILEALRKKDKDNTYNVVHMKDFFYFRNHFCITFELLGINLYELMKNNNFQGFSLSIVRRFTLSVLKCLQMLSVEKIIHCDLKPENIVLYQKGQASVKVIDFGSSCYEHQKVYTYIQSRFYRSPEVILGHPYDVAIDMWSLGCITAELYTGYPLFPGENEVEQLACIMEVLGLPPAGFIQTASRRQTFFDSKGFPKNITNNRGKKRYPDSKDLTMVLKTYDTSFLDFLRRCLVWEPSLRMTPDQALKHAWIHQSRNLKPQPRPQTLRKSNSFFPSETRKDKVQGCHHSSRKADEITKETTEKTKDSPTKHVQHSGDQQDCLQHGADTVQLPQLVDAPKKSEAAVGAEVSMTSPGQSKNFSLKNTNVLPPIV

[3] = target: T3, TRIM71-Flag (UniProt Q2Q1W2)
T3 sequence: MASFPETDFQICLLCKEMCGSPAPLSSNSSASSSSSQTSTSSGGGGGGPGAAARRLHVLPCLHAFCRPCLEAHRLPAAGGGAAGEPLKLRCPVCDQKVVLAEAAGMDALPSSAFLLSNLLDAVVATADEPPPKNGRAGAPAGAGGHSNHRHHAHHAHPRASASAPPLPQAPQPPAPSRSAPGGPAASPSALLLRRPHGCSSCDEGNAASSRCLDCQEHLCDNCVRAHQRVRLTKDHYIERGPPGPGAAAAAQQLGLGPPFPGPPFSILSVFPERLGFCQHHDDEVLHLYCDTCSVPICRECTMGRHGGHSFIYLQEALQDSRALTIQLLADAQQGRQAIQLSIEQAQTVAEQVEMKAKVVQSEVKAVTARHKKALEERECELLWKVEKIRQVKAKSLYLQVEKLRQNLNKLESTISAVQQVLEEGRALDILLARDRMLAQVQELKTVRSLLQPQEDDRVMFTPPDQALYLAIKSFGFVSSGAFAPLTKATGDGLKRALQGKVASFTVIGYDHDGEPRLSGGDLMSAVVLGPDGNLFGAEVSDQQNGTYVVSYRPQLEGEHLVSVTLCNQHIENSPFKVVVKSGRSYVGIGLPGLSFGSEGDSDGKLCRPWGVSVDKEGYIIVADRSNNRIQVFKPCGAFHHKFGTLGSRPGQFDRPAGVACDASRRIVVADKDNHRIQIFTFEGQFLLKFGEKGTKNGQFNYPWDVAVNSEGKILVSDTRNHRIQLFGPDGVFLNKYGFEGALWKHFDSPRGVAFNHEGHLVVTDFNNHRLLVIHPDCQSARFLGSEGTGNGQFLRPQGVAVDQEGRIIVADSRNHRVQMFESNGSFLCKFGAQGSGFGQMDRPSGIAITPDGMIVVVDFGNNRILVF

[4] = target: T4, DYRK4-MT (K133R/Y264F)-Flag (UniProt Q9NR20)
T4 sequence: T2 sequence with K133R, Y264F

[5] = target: Flag-MAVS (UniProt Q7Z434)

Measured: binding

HA-IRF3 (from UniProt Q14653 1-427)
binds: all assays above

Reference: paper PMC11811199
